Laboratory results taken from publication PMC5147768.
These are yes or no findings as the source states them, for the method shown. In cells and extracts the contact can be indirect. Some entries that bind do so weakly or less than the wild type. Tags and fused reporters may be left off the sequences shown.

Sequences of proteins named here, by UniProt entry; tags and fusion partners are left off.
UniProt Q9SP32: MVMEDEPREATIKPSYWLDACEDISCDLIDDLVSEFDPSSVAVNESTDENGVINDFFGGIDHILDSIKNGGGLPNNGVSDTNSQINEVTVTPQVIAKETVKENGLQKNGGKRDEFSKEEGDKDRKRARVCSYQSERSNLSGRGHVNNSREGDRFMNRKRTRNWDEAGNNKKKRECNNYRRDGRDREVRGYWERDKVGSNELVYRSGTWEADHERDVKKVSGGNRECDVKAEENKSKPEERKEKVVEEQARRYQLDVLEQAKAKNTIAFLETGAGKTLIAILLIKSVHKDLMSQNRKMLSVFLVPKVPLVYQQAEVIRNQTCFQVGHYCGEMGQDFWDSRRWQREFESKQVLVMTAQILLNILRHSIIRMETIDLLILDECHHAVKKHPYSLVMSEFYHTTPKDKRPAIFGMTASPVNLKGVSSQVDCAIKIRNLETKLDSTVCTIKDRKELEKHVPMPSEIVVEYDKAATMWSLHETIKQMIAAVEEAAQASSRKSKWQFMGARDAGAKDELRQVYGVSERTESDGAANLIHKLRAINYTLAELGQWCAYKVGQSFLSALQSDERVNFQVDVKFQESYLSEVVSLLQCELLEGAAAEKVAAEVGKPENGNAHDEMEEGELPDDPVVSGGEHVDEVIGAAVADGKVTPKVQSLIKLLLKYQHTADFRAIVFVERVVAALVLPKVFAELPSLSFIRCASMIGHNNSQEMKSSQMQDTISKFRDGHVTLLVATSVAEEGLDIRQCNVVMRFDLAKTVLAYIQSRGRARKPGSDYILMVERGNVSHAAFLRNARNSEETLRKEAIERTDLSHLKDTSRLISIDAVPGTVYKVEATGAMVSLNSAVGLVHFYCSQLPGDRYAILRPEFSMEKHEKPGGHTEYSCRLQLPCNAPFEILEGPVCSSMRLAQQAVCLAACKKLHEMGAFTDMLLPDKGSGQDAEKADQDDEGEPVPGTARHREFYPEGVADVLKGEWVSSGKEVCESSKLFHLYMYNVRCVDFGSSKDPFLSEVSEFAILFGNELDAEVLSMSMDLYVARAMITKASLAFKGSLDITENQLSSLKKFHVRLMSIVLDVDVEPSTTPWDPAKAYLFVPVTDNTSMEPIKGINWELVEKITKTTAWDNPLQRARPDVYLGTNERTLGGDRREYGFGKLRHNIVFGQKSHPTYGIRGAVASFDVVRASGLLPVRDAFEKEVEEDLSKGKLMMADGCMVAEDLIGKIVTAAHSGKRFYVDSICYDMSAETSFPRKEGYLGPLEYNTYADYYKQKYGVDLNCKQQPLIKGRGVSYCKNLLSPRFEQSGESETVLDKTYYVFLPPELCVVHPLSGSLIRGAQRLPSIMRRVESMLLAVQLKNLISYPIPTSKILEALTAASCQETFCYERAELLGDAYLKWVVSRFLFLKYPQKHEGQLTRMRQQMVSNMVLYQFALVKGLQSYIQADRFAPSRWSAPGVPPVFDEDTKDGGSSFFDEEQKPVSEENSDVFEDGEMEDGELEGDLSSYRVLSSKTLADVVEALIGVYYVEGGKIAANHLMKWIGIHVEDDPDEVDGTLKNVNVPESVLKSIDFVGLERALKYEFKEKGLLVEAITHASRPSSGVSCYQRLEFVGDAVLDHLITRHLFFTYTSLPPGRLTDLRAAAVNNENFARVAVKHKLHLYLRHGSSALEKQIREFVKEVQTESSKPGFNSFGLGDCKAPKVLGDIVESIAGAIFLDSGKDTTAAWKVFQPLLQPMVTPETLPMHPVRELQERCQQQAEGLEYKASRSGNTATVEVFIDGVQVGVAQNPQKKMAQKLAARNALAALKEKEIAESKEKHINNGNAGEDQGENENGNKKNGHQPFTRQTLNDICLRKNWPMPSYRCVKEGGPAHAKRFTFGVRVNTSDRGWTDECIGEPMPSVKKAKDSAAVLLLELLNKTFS

Target: DCL1-YFP (Dicer-Like 1 fused to YFP) (Arabidopsis thaliana) (UniProt Q9SP32)
Experiment: co-IP; DCL1-YFP co-expressed with DBR1-Flag, HYL1-Flag or SE-Flag in N. benthamiana; leaf lysate (50 mM Tris-HCl pH 8.0, 150 mM NaCl, 0.2% Nonidet P-40, 2 mM DTT, 5% glycerol) incubated with GFP-Trap agarose beads for 2 h; western blot with anti-GFP and anti-Flag

Row | binding | Binder
1 | binds | SE-Flag (protein, UniProt Q9ZVD0 1-720) MADVNLPPSDSVDNRLPEKSTSSSPPPPPPSSSLPQQEQEQDQQQLPLRRERDSRERRDERDIERPPPNRRERDRSPLPPPRRDYKRRPSLSPPPPYRDRRHSPPQRRSPPQKRYRRDDNGYDGRRGSPRGGYGPPDRRFGYDHGGGYDREMGGRPGYGDERPHGRFMGRYQDWEGGRGGYGDASNSGNPQRDGLMSYKQFIQELEDDILPSEAERRYQEYKSEYITTQKRAFFNTHKEEDWLKNKYHPTNLLSVIERRNDLAQKVAKDFLLDLQSGTLDLGPAVTALNKSGRTSEPNSEDEAAGVGKRKRHGMGGAKENELLSAAPKAPSFTSDPKRILTDVEQTQALVRKLDSEKKIEENVLQGSETEKSGREKLHSGSTGPVVIIRGLTSVKGLEGVELLDTLVTYLWRVHGLDYYGKVETNEAKGLRHVRAEGKVSDAKGDENESKFDSHWQERLKGQDPLEVMAAKEKIDAAATEALDPHVRKIRDEKYGWKYGCGAKGCTKLFHAAEFVYKHLKLKHTELVTELTTKVREELYFQNYMNDPNAPGGQPATQQSGPRDRPIRRKPSMENRLRDDRGGRRERDGRANGNDRNDRSEDQQRGDNDGGNPGEVGYDAFGGQGGVHVPPFLSDINPPPMLMPVPGAGPLGPFVPAPPEVAMQMFRDPSGPNPPFEGSGRGGPAPFLLSPAFRQDPRRLRSYQDLDAPEEEVTVIDYRSL
2 | binds | HYL1-Flag (protein, UniProt O04492 1-419) MTSTDVSSGVSNCYVFKSRLQEYAQKYKLPTPVYEIVKEGPSHKSLFQSTVILDGVRYNSLPGFFNRKAAEQSAAEVALRELAKSSELSQCVSQPVHETGLCKNLLQEYAQKMNYAIPLYQCQKVETLGRVTQFTCTVEIGGIKYTGAATRTKKDAEISAGRTALLAIQSDTKNNLANYNTQLTVLPCEKKTIQAAIPLKETVKTLKARKAQFKKKAQKGKRTVAKNPEDIIIPPQPTDHCQNDQSEKIETTPNLEPSSCMNGLKEAAFGSVETEKIETTPNLEPPSCMNGLKEAAFGSVETEKIETTPNLEPPSCMNGLKEAAFGSVETEKIETTPNLEPSSCMNGLKEAAFGSVETEKIETTPNLEPPSCMNGLKEAAFGSVETEKIETTPNLESSSCMSGLKEAAFGSVETEASHA
